Assay results taken from patent publication US6429024B1, “Test method for IgA nephropathy” (Asahi Kasei Kabushiki Kaisha, priority 1998, dated 2002).
Some results were stated once for a whole list of compounds, not compound by compound.

Test system: antibody recognizing the core peptide of the hinge region in IgA1 (IgG class, serum of patient with IgA nephropathy)
Experiment: Assay of inhibitory activities of various synthetic peptides (enzyme immunoassay: patient serum pre-incubated with peptide, then reacted with immobilized IgA1 hinge core peptide-BSA antigen)
Format: binding
Details: synthetic peptide 1 μg/ml in PBS mixed 1:1 with 1/50 diluted serum, room temperature 3 hours; peroxidase labeled anti-human IgG; absorbancy at 490 nm
Description: Antigen was prepared according to the method described in the above example 1 (1).
The above antigen solution was dissolved to […] in 0.015 M carbonate buffer (pH 9.6) and each 100 μl was added in each well of the 96 well microtiter plate (A Flow General Co., Linbro/Titertek EIA Microtitration plate, Cat. No. 76-381-04), then incubated at 4° C. overnight (standing culture).
PBS (0.01 M phosphate buffer, pH 7.5 containing 0.15 M NaCl) solution (200 μl) containing 1% bovine serum albumin (fraction V, purchased from SIGMA Inc.) was added in each well, and incubated at 4° C. overnight. Each well was washed with 200 μl of PBS. The antigen was immobilized.
Synthetic peptide [the core peptide constructing a part of the hinge region in IgA1 as follows:
was dissolved to 1 μg/ml with PBS. The above diluted serum of patient with IgA nephropathy and the solution of synthetic peptide were mixed in equal volume (1:1). Also the above diluted serum of patient with IgA nephropathy and PBS without containing synthetic peptide (hereinafter designated as blank solution) were mixed in equal volume (1:1). These mixtures were incubated at room temperature for 3 hours.
After termination of the incubation, each solution (100 μl) was added in each well, which was provided with the antigen immobilized therein, of the 96 well microtiter plate and incubated at room temperature for 3 hours.
Each well was washed three times with 200 μl of PBS containing 0.1% bovine serum albumin, 0.05% Tween-20 (hereinafter designated as PS/BSA/Tween).
A solution (100 μl) of peroxidase labeled anti-human IgG (purchased from Organon Tecknika Inc.), which was diluted to 1/200 with PBS, was added in each well.
After incubation at room temperature for 1 hour, each well was washed three times with PS/BSA/Tween (200 μl).
Coloring agent (100 μl)(orthophenylenediamine 20 mg, sodium […]·12H2O 1.795 g, citric acid 0.525 g, and hydrogen peroxide 15 μl were dissolved in water 50 ml) was added in each well, and incubated at room temperature for 1 hour.
After the incubation was terminated, absorbency at 490 nm was measured using microplate reader (Bio-Red Inc., Microplate reader Model 450).

Question: How did the “difference in the absorption between the added group and the blank solution” value (shortened to “difference”) turn out when “Thr Pro Pro Thr Pro (TPPTP) [core peptide constructing a part of the hinge region in IgA1]” was run?
Answer: more than 10%

Question: How did the “difference” value turn out when “Pro Val Pro Ser Thr (PVPST) [core peptide constructing a part of the hinge region in IgA1]” was run?
Answer: more than 10%

Question: Which “difference” value does the source give for “Pro Ser Pro Ser Cys (PSPSC) [core peptide constructing a part of the hinge region in IgA1]” here?
Answer: more than 10%

Question: How did the “difference” value turn out when “Pro Ser Pro Ser Thr (PSPST) [core peptide constructing a part of the hinge region in IgA1]” was run?
Answer: more than 10%

Question: How did the “difference” value turn out when “Pro Ser Thr Pro Pro (PSTPP) [core peptide constructing a part of the hinge region in IgA1]” was run?
Answer: more than 10%

Question: Which “difference” value does the source give for “Thr Pro Asp Glu Thr (TPDET; listed as Bovine sp.) [core peptide constructing a part of the bovine serum albumin, reference compound]” here?
Answer: less than 10%

Question: How did the “difference” value turn out when “Ser Pro Asp Leu Pro (SPDLP; listed as Bovine sp.) [core peptide constructing a part of the bovine serum albumin, reference compound]” was run?
Answer: less than 10%

Question: With “Thr Pro Val Glu Ser (TPVES; listed as Bovine sp.) [core peptide constructing a part of the bovine serum albumin, reference compound]” as the substance, how does the “difference” value read?
Answer: less than 10%

Question: “Leu Pro Pro Leu Thr (LPPLT; listed as Bovine sp.) [core peptide constructing a part of the bovine serum albumin, reference compound]” was tested. Which “difference” value did it give?
Answer: less than 10%

Question: Which “difference” value does the source give for “Pro Thr Pro Ser Pro (PTPSP) [core peptide constructing a part of the hinge region in IgA1]” here?
Answer: more than 10%

Question: With “Leu Lys Pro Asp Pro (LKPDP; listed as Bovine sp.) [core peptide constructing a part of the bovine serum albumin, reference compound]” as the substance, how does the “difference” value read?
Answer: less than 10%
